In this test the target is T1, ASGR1, endogenous mouse liver (mouse (endogenous in liver)) (UniProt P34927).
T1 sequence: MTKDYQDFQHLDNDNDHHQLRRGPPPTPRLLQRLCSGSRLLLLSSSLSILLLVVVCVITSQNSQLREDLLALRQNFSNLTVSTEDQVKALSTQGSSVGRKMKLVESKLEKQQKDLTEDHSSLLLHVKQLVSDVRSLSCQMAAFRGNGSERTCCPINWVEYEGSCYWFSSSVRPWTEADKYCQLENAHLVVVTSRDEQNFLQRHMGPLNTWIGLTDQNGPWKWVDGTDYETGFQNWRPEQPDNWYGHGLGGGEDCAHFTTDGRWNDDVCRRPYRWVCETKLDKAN
Kind of test: co-IP; endogenous proteins; liver lysates of WT and Pcsk9-KO mice (1 mg total protein, Pierce nondenaturing IP buffer) with 2 μg rabbit anti-ASGR1 antibody overnight at 4 °C, Protein G magnetic beads; Western blot for LDLR and ASGR1. (A western blot detects proteins with antibodies after separation by electrophoresis.)

Chains of the proteins cited; added tags and fusions are not shown. Residues count along the entry.
UniProt P35951, residues 22-862: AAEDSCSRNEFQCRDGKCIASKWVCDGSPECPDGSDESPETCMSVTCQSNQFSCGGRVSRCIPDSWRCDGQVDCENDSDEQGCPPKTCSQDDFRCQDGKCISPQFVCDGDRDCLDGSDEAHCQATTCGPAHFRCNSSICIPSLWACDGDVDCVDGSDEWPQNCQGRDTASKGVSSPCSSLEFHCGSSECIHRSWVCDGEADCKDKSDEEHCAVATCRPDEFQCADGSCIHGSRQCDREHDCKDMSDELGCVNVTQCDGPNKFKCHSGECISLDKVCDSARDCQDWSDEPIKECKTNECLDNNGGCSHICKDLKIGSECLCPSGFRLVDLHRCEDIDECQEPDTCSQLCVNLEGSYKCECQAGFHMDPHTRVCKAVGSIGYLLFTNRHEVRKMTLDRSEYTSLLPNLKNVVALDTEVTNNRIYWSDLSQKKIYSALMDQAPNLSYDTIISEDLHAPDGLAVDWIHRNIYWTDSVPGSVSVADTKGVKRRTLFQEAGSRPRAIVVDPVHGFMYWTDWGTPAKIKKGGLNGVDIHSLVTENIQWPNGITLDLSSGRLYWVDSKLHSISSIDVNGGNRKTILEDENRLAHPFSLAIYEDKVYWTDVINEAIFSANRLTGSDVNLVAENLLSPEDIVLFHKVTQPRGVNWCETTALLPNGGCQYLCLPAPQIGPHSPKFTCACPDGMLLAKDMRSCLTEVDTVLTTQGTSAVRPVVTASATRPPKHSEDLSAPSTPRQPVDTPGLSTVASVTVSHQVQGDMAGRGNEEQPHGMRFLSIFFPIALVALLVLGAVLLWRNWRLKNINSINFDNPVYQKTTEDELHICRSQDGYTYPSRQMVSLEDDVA

No constants are given. Whether binding was seen depends on the method and setting. Binding seen in cells or lysates may run through a third protein. Some results given as binding are weak or reduced against the parent protein; the word gives no strength.

Turning to “LDLR, endogenous mouse liver (from UniProt P35951 22-862) (receptor)”, the binding entry is on record as “binds”.

Values taken from paper PMC8479480.
